Measured values published in PubChem BioAssay AID2517 (National Center for Advancing Translational Sciences (NCATS), 2010).
The whole screen tested about 350,000 compounds, of which about 1,200 (0.34%) were called active. Inconclusive means that the source gave no clear call. Such entries were picked first, then a sample of the others. Calls come from the whole dose curve; as a rule, active = well fitted inhibition curve with a large enough effect; inconclusive = small, poorly fitted or top-dose-only effect; inactive = no such curve, though single readings can be large or run the other way. Where the call is inconclusive, the potency comes from a doubtful curve fit.

The chains behind the UniProt entries cited, without tags or fusion partners.
UniProt P27695, whole entry, looked up: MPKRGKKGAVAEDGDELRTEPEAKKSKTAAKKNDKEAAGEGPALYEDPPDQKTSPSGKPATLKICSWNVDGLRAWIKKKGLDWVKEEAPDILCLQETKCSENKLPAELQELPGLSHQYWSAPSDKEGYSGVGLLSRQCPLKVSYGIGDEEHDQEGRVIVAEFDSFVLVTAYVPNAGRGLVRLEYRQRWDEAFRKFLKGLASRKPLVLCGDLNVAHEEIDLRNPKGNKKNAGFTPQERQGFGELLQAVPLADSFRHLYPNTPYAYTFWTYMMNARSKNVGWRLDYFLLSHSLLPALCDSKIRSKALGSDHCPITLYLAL

Each compound was assayed against DNA repair nuclease/redox regulator APEX1 (Homo sapiens) (UniProt P27695) (assay: qHTS Assay for Inhibitors of the Human Apurinic/apyrimidinic Endonuclease 1 (APE1)). Details: recombinant APE1, TAMRA/BHQ-2 abasic DNA cleavage fluorescence; activity change, negative = inhibition: at 65.8 µM (top of the series).
How it was run: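 Quantitative HTS: incision of a TAMRA/BHQ-2 double-stranded substrate bearing a tetrahydrofuran abasic site by 0.75 nM APE1 raises fluorescence. Substrate 50 nM final, added after 15 min compound preincubation at room temperature; progress as third-minus-first kinetic read difference.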
Note: nearly all actives have a fitted effect of over 55% in size.
Potency is the fitted concentration of half-maximal effect.
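Throughout, for activity change, negative = inhibition: plate controls were vehicle for no effect and reference inhibitor for full effect.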

SMILES | Potency | activity change, negative = inhibition
Cn1c(SCC(=O)c2ccc(O)c(O)c2)nnc1-c1cccs1 | inconclusive: 39.8 µM [inhibitor, single point] | –
COc1cccc([C@@H]2Oc3ccc(Br)cc3C(=O)[C@H]2OC(=O)NCCc2ccc(OC)c(OC)c2)c1 | – | inactive: 4.49%
CC1N(C)c2cc(NC(=O)c3ccco3)ccc2C1(C)C (stereo not drawn) | inconclusive: 31.6 µM [inhibitor, single point] | –
Cc1noc(C)c1-c1ccc2ncnc(NCc3cccc(-c4ccccc4)c3)c2c1 | inconclusive: 39.8 µM [inhibitor, partial curve, poor fit] | –
Nc1nc(SCC(=O)N2N=C3/C(=C/c4ccco4)CCCC3C2c2ccco2)n[nH]1 (stereo not drawn) | – | inactive: -6.98%
O=C(O)c1ccc(COc2c(F)c(F)c(F)c(F)c2F)o1 | inconclusive: 39.8 µM [inhibitor, single point] | –
COc1ccc(-c2cc(-c3cccs3)nc3sc(C#N)c(N)c23)cc1 | – | inactive: 3.53%
C(=N\N1CCN(Cc2ccccc2)CC1)/c1ccccc1 | inconclusive: 0.0398 µM [inhibitor, full curve, poor fit] | –
CC(=O)Nc1ccc2nc(NC(=O)COc3ccccc3)sc2c1 | inconclusive: 22.4 µM [inhibitor, single point] | –
CCOC(=O)C1=C(O)/C(=C\c2ccc(O)c(OCC)c2)N=C1C | inconclusive: 2.82 µM [inhibitor, partial curve, poor fit] | –
NS(=O)(=O)c1ccc(CNS(=O)(=O)c2cc(C(=O)O)ccc2Cl)cc1 | inconclusive: 31.6 µM [inhibitor, single point] | –
COc1cc2c(cc1OC)C(C)N(C(=O)Cn1ncc3c1-c1cc(C)ccc1OC3)CC2 (stereo not drawn) | inconclusive: 2.51 µM [inhibitor, partial curve] | –
COc1ccc(CNC(=O)COC(=O)/C=C/c2ccco2)cc1 | inconclusive: 28.2 µM [inhibitor, single point] | –
Cc1cc(C)cc(Oc2ccccc2/C=C\C(=O)O)c1 | inconclusive: 0.0045 µM [inhibitor, full curve, poor fit] | –
COc1ccc(C(=O)Nc2cccc(OC)c2)cc1 | inconclusive: 0.316 µM [inhibitor, full curve, poor fit] | –
COC(=O)C1=C[C@@H](C(=O)OC)[C@@H]2C3=C(C(=O)[C@@]2(C)NC(=O)c2ccccc2)[C@H](C)[C@@H]2C(=O)N(c4ccccc4)C(=O)[C@@H]2[C@@H]3C1 | – | inactive: 0.652%
CC1=NN(c2ccccc2)C(=O)C1C(=O)c1cc([N+](=O)[O-])cc([N+](=O)[O-])c1 (stereo not drawn) | inconclusive: 39.8 µM [inhibitor, single point] | –
O=S(=O)(NC1CCCCC1Oc1ccccc1)c1ccc(Cl)cc1 (stereo not drawn) | inconclusive: 4.47 µM [inhibitor, single point] | –
COC(=O)c1ccccc1NC(=O)C1CC=CCC1C(=O)O (stereo not drawn) | inconclusive: 25.1 µM [inhibitor, single point] | –
O=C(Nc1ccc(Cl)cc1)Nc1ccc(S(=O)(=O)Nc2ncccn2)cc1 | inconclusive: 22.4 µM [inhibitor, single point] | –
O=C(NCCCCc1ccccc1)C1CC(c2cccc(F)c2)=NO1 (stereo not drawn) | inconclusive: 7.94 µM [inhibitor, full curve, poor fit] | –

SMILES | Potency | activity change, negative = inhibition
O=C1NN(c2ccccc2)C(=O)/C1=C/c1ccc(-c2ccc(Cl)c(C(=O)O)c2)o1 | active: 12.6 µM | –
Cc1[nH]n(-c2ccccc2)c(=S)c1C=NCCCN=Cc1c(C)[nH]n(-c2ccccc2)c1=S | inconclusive: 15.8 µM [inhibitor, single point] | –
O=C(COC(=O)c1ccc2c(c1)OCCO2)Nc1cc(S(=O)(=O)N2CCOCC2)ccc1Cl | inconclusive: 12.6 µM [inhibitor, single point] | –
Cc1cccc(Nc2c(-c3ccc(O)cc3)nc3ncccn23)c1 | inconclusive: 25.1 µM [inhibitor, single point] | –
COc1ccc(/C=C/C(=O)NCC(=O)N=Nc2c(O)[nH]c3ccc([N+](=O)[O-])cc23)cc1 | inconclusive: 26.7 µM [inhibitor, single point] | –
COc1ccc(-n2nc3c(=O)[nH][nH]c3cc2=O)cc1 | inconclusive: 31.6 µM [inhibitor, single point] | –
N#CC(C#N)=NNc1ccc(S(=O)(=O)N2CCCCC2)cc1 | inconclusive: 31.6 µM [inhibitor, single point] | –
O=C(N/N=C/c1cc([N+](=O)[O-])ccc1O)c1ccc2c(c1)OCCO2 | – | inactive: 2.1%
S=c1[nH]nc(-c2cc(-c3ccccc3)n[nH]2)n1/N=C/c1ccc(Br)s1 | inconclusive: 44.7 µM [inhibitor, single point] | –
Cc1ccc(C2CCN(C(=S)NC(C)(C)C)C2)cc1 (stereo not drawn) | inconclusive: 39.8 µM [inhibitor, single point] | –
COc1ccc(NS(=O)(=O)c2cc(NC(=O)c3ccncc3)ccc2N2CCOCC2)cc1 | inconclusive: 12.6 µM [inhibitor, partial curve, poor fit] | –
CCOC1(OCC)N=C(N)C2(C#N)C(c3ccc(NC(C)=O)cc3)C12C#N (stereo not drawn) | inconclusive: 28.2 µM [inhibitor, partial curve, poor fit] | –
CC[C@H](C)[C@H](NC(=O)c1ccccc1)C(=O)Nc1ccc(S(=O)(=O)Nc2cc(C)nc(C)n2)cc1 | inconclusive: 3.16 µM [inhibitor, single point] | –
Cc1cc(C)n(CCc2nc(-c3cccs3)cs2)n1 | – | inactive: 1.89%
Cc1c(C(=O)NC(=S)Nc2ccccc2N2CCCC2)cccc1[N+](=O)[O-] | inconclusive: 0.0251 µM [inhibitor, full curve] | –
O=S(=O)(Cc1ccco1)Cc1nc(-c2ccc(Cl)cc2)cs1 | inconclusive: 7.94 µM [inhibitor, single point] | –
CCN(CC)c1ccc(C(=O)N/N=C/c2ccc(N3CCOCC3)cc2)cc1 | inconclusive: 44.7 µM [inhibitor, single point] | –
CN(C)Cc1ccccc1-c1nc(N(C)Cc2ccco2)c2ccccc2n1 | inconclusive: 0.0562 µM [inhibitor, full curve, poor fit] | –
COc1ccc2[nH]c3c4c(ccc3c2c1)C(=O)C=CC4=O | – | inactive: -5.72%
COc1ccc(CC(=O)NNc2ncnc3c2cnn3-c2ccc(C)cc2)cc1OC | inconclusive: 0.282 µM [inhibitor, full curve, poor fit] | –
O=C1c2ccccc2C(=O)N1Cc1ccco1 | – | inactive: 0.213%

SMILES | Potency | activity change, negative = inhibition
CC(OC(=O)c1ccc(S(=O)(=O)NCc2ccco2)cc1)C(=O)Nc1ccc(Cl)cn1 (stereo not drawn) | inconclusive: 8.91 µM [inhibitor, single point] | –
c1ccc(-c2ccc(CN3C[C@@H]4C(c5ccccc5)C5(c6ccccc6)CC4(C5)[C@H]3c3ccccc3)cc2)cc1 (stereo partly drawn) | inconclusive: 0.0251 µM [inhibitor, full curve, poor fit] | –
O=C1C[C@@H](c2ccc(O)cc2)Oc2cc(O[C@@H]3O[C@H](CO)[C@@H](O)[C@H](O)[C@H]3O)cc(O)c21 | – | inactive: 8.32%
CCOc1ccc(N2C(=O)C3C(c4ccccc4F)NN(C(=O)c4ccc(C)cc4)C3C2=O)cc1 (stereo not drawn) | inconclusive: 3.16 µM [inhibitor, partial curve, poor fit] | –
COc1cc(/C=C\c2ccc(OC)cc2OC)cc(OC)c1 | – | inactive: -4.39%
CC(NC(=O)c1ccccc1)C(=O)OCC(=O)N1c2ccccc2Sc2ccccc21 (stereo not drawn) | inconclusive: 10 µM [inhibitor, partial curve, poor fit] | –
CCCC1=NN(C(=O)Cc2ccc(OC)c(OC)c2)C(O)(C(F)(F)F)C1 (stereo not drawn) | inconclusive: 7.08 µM [inhibitor, single point] | –
COc1cc(/C=C2\SC(=S)N(C(Cc3ccccc3)C(=O)O)C2=O)ccc1O (stereo not drawn) | inconclusive: 35.5 µM [inhibitor, single point] | –
CCNc1ncc2ncc(=O)n(Cc3ccc(F)cc3)c2n1 | – | inactive: -1.32%
O=C(CSc1nnc(COc2ccc(F)cc2)o1)N1c2ccccc2CCc2ccccc21 | inconclusive: 44.7 µM [inhibitor, single point] | –
Cn1cc(Br)c(C(=O)NNC(=O)c2ccc(Br)cc2)n1 | inconclusive: 25.1 µM [inhibitor, single point] | –
N#C/C(=N\Nc1cc(Cl)cc(Cl)c1)c1nnc2n1CCCCC2 | inconclusive: 39.8 µM [inhibitor, single point] | –
Cc1ccc(OCC(=O)N/N=C/c2cc([N+](=O)[O-])ccc2N2CCCCC2)cc1 | inconclusive: 28.2 µM [inhibitor, single point] | –
CC1(C)CC(NCc2ccccc2)CCO1 (stereo not drawn) | inconclusive: 44.7 µM [inhibitor, single point] | –
CCN(CCO)c1nc(SC)nc2c1sc1nc(-c3ccco3)c3c(c12)CCC3 | inconclusive: 6.31 µM [inhibitor, single point] | –
O=C(O)c1nn(CC(=O)N(C2CCCCC2)C2CCCCC2)c(=O)c2ccccc12 | inconclusive: 44.7 µM [inhibitor, single point] | –
Cn1nc(C(F)(F)F)c(-c2ccccc2)c1NC(=O)CSCC(=O)O | inconclusive: 3.55 µM [inhibitor, partial curve] | –
c1ccc2c(SCc3cn4ccccc4n3)nncc2c1 | inconclusive: 25.1 µM [inhibitor, single point] | –
C=CCc1cccc2cc(C(=O)Nc3ccccc3C(=O)O)c(=O)oc12 | – | inactive: -1.32%
N#Cc1ccccc1COC(=O)c1ccc2c(c1)OCCO2 | – | inactive: -1.39%
O=C(O)c1cccc([N+](=O)[O-])c1 | – | inactive: 5.05%

Shown as labelled records: entries from further up.
Cc1c(C(=O)NC(=S)Nc2ccccc2N2CCCC2)cccc1[N+](=O)[O-]
  Potency: inconclusive: 0.0251 µM [inhibitor, full curve]
O=S(=O)(Cc1ccco1)Cc1nc(-c2ccc(Cl)cc2)cs1
  Potency: inconclusive: 7.94 µM [inhibitor, single point]
CCN(CC)c1ccc(C(=O)N/N=C/c2ccc(N3CCOCC3)cc2)cc1
  Potency: inconclusive: 44.7 µM [inhibitor, single point]
CN(C)Cc1ccccc1-c1nc(N(C)Cc2ccco2)c2ccccc2n1
  Potency: inconclusive: 0.0562 µM [inhibitor, full curve, poor fit]
